Results from article PMC5098195.
Results are given in words; binding and its absence hold for the method and conditions named. In cells and extracts the contact can be indirect. Some results given as binding are weak or reduced against the parent protein; the word gives no strength. Blank lines part the entries; values can stand above or below the molecule they belong to.

Amino acid sequences for entries named in this document (tags omitted).
UniProt P42582: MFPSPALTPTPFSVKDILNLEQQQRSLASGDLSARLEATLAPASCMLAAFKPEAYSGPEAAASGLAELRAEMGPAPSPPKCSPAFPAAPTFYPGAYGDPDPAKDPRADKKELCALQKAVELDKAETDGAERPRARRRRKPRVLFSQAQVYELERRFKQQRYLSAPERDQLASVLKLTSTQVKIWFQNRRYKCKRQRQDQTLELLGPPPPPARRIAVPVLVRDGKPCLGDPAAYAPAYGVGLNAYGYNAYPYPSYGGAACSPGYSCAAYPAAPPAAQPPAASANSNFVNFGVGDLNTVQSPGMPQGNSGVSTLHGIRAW
UniProt O35767: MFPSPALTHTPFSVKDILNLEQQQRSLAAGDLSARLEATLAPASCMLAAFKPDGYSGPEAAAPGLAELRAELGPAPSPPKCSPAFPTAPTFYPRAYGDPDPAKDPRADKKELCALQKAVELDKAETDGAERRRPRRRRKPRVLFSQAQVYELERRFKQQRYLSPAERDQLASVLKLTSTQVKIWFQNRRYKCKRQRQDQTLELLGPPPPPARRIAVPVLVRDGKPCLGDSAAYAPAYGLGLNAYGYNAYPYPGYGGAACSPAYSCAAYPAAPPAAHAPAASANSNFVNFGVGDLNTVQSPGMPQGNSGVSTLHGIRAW
UniProt Q09472: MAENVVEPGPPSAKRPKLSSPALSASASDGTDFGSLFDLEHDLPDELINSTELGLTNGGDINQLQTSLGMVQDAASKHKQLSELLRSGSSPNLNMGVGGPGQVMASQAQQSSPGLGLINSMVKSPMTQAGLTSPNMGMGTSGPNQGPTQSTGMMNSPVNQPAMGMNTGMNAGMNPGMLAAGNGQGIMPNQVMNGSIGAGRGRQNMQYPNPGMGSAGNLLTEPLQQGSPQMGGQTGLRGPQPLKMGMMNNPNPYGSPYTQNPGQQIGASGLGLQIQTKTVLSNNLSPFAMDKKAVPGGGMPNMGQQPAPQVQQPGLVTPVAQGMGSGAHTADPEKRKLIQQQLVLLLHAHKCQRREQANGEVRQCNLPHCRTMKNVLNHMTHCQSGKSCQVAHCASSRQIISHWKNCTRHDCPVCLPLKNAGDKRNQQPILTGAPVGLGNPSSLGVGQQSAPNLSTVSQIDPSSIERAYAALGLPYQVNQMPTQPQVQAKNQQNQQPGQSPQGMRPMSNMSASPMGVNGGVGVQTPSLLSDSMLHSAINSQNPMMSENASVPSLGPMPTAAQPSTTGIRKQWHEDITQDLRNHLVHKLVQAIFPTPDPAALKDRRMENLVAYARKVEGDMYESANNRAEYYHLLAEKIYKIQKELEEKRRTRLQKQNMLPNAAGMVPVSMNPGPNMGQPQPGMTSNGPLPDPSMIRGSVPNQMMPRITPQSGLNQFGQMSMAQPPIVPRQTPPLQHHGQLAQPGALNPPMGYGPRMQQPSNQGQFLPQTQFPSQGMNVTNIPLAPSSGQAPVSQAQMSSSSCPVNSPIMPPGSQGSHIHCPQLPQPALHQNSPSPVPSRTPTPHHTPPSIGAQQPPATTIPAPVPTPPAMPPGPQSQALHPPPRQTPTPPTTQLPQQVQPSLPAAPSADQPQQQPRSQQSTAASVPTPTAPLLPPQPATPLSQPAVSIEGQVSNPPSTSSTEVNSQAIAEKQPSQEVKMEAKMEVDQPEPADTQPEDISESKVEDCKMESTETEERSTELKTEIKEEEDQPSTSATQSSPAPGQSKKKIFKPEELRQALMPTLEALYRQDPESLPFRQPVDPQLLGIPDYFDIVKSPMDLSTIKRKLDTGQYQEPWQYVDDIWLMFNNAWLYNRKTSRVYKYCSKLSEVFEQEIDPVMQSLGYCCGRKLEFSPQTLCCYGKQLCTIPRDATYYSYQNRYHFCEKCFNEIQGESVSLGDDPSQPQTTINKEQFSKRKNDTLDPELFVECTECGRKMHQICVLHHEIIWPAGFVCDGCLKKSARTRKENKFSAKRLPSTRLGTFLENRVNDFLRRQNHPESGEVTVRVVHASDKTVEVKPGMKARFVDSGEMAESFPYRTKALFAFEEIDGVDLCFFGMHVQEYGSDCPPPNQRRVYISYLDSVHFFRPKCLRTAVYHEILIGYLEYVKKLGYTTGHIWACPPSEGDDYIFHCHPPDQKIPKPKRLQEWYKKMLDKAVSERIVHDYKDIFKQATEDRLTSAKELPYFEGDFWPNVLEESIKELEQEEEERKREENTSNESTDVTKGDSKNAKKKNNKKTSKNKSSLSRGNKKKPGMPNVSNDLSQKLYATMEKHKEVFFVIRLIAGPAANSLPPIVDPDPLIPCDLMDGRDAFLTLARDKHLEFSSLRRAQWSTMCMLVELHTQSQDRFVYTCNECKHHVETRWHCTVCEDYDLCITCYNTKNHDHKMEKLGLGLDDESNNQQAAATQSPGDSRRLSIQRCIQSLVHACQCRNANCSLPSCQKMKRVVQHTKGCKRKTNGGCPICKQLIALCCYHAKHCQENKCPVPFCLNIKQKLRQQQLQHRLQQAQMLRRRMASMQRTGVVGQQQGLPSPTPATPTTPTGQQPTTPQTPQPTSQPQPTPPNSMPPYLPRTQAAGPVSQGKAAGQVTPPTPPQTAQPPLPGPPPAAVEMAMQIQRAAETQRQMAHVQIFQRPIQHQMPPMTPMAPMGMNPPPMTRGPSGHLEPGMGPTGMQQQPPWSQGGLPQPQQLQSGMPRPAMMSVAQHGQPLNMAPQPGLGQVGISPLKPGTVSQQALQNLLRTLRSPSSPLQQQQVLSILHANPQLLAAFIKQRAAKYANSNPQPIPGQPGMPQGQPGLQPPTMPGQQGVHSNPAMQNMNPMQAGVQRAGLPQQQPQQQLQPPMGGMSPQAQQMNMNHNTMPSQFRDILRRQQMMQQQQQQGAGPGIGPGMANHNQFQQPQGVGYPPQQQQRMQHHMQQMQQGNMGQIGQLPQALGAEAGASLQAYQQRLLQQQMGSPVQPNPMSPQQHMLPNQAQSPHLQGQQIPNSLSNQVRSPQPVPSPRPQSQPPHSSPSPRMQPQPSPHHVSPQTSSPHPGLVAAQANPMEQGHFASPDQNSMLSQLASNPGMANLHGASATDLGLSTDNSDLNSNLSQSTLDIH

Columns and labels:
[1] = biological target: Myc-tagged Nkx2.5 (mouse) (UniProt P42582); assay: co-IP; tagged proteins co-transfected into HEK293A cells for 48 hours; lysates immunoprecipitated with anti-Myc or anti-HA antibodies, western blot
[2] = biological target: Nkx2.5 (plasmid of Figure 7, tag not told) (mouse) (UniProt P42582); assay: co-IP; Nkx2.5 and SRF or TBX5 plasmids co-transfected with/without SIRT1 into HEK293A cells for 48 hours; immunoprecipitation and western blot
[3] = biological target: endogenous Nkx2.5 of neonatal rat cardiomyocytes (rat (endogenous in neonatal rat cardiomyocytes)) (UniProt O35767); assay: co-IP; endogenous proteins; primary neonatal rat cardiomyocytes lysed, immunoprecipitation with anti-SIRT1 or anti-Nkx2.5 antibodies or control IgG, western blot

binding [2]: binds
B1: TBX5 (protein, UniProt Q99593 1-518)
chain: MADADEGFGLAHTPLEPDAKDLPCDSKPESALGAPSKSPSSPQAAFTQQGMEGIKVFLHERELWLKFHEVGTEMIITKAGRRMFPSYKVKVTGLNPKTKYILLMDIVPADDHRYKFADNKWSVTGKAEPAMPGRLYVHPDSPATGAHWMRQLVSFQKLKLTNNHLDPFGHIILNSMHKYQPRLHIVKADENNGFGSKNTAFCTHVFPETAFIAVTSYQNHKITQLKIENNPFAKGFRGSDDMELHRMSRMQSKEYPVVPRSTVRQKVASNHSPFSSESRALSTSSNLGSQYQCENGVSGPSQDLLPPPNPYPLPQEHSQIYHCTKRKEEECSTTDHPYKKPYMETSPSEEDSFYRSSYPQQQGLGASYRTESAQRQACMYASSAPPSEPVPSLEDISCNTWPSMPSYSSCTVTTVQPMDRLPYQHFSAHFTSGPLVPRLAGMANHGSPQLGEGMFQHQTSVAHQPVVRQCGPQTGLQSPGTLQPPEFLYSHGVPRTLSPHQYHSVHGVGMVPEWSDNS

binding [3]: binds
B2: endogenous SIRT1 of neonatal rat cardiomyocytes (enzyme, UniProt A0A0G2JZ79 1-741)
chain: MADEAALALQAGGSPSAAAAMEAASQPADEPLRKRPRRDGPGLGRSPGEPSAAAAAAAAAAGCEAASAAAPAALWREAAGAAAASAEREAPATAAAGDGDNGPGLRREPRAADDFDDDEGEEEDEAAAAAAAAIGYRDNLLLADEIITNGFHSCESDDDDRASHASSSDWTPRPRIGPYTFVQQHLMIGTDPRTILKDLLPETIPPPELDDMTLWQIVINILSEPPKRKKRKDINTIEDAVKLLQECKKIIVLTGAGVSVSCGIPDFRSRDGIYARLAVDFPDLPDPQAMFDIEYFRKDPRPFFKFAKEIYPGQFQPSLCHKFIALSDKEGKLLRNYTQNIDTLEQVAGIQRIIQCHGSFATASCLICKYKVDCEAVRGDIFNQVVPRCPRCPADEPLAIMKPEIVFFGENLPEQFHRAMKYDKDEVDLLIVIGSSLKVRPVALIPSSIPHEVPQILINREPLPHLHFDVELLGDCDVIINELCHRLGGEYAKLCCNPVKLSEITEKPPRTQKELVHLSELPPTPLHISEDSSSPERTVPQDSSVIATLVDQTIKNKVDDLEVSEPKSCVEEKSQEVQTYRNVESINVENPDFKAVGSSTGDKNERTSVAETVRKCWPNRLAKEQISKRLDGNQYLFVPPNRYIFHGAEVYSDSEDDALSSSSCGSNSDSGTCQSPSLEEPLEDESEIEEFYNGLEDDADRPECAGGSGADGGDQEAVNEAIAMKQELTDVNCTPDKSEHY

More lines, now with the values behind:

Molecule: HA-p300 (from UniProt Q09472 1-2414) (enzyme)
binding [1]: binds

B3: SRF (protein, UniProt P11831 1-508)
chain: MLPTQAGAAAALGRGSALGGSLNRTPTGRPGGGGGTRGANGGRVPGNGAGLGPGRLEREAAAAAATTPAPTAGALYSGSEGDSESGEEEELGAERRGLKRSLSEMEIGMVVGGPEASAAATGGYGPVSGAVSGAKPGKKTRGRVKIKMEFIDNKLRRYTTFSKRKTGIMKKAYELSTLTGTQVLLLVASETGHVYTFATRKLQPMITSETGKALIQTCLNSPDSPPRSDPTTDQRMSATGFEETDLTYQVSESDSSGETKDTLKPAFTVTNLPGTTSTIQTAPSTSTTMQVSSGPSFPITNYLAPVSASVSPSAVSSANGTVLKSTGSGPVSSGGLMQLPTSFTLMPGGAVAQQVPVQAIQVHQAPQQASPSRDSSTDLTQTSSSGTVTLPATIMTSSVPTTVGGHMMYPSPHAVMYAPTSGLGDGSLTVLNAFSQAPSTMQVSHSQVQEPGGVPQVFLTASSGTVQIPVSAVQLHQMAVIGQQAGSSSNLTELQVVNLDTAHSTKSE
binding [2]: binds
